Assay results as given in publication PMC5670179, “Folding of a bacterial integral outer membrane protein is initiated in the periplasm” (Nature Communications, 2017).
No constants are given. Whether binding was seen depends on the method and setting. A result given as binding can be weak or reduced; the word gives no strength.

Legend:
[1] = biological target: FLAG-UpaGΔ2 (E. coli O6:H1 strain CFT073); assay: SDS- and heat-resistant oligomers on SDS-PAGE after pulse-chase labelling and immunoprecipitation; cells grown in M9 minimal medium at 37 °C, pTrc99a derivatives; TCA precipitation, immunoprecipitation with anti-HA or anti-UpaG antiserum, samples heated to 99 °C for 5 min, 8-16% Tris-glycine gels
[2] = biological target: His10-UpaGΔ2 (E. coli O6:H1 strain CFT073); assay: as above

Substance	binding [1]	binding [2]
FLAG-UpaGΔ2 (from UniProt A0A0H2VCA1 1609-1778) (domain or fragment)	binds	
His10-UpaGΔ2 (from UniProt A0A0H2VCA1 1609-1778) (domain or fragment)		binds
